# Paper PMC4887914
# Protein sequences, listed by entry. Tags and fused reporters are not part of them. Residues count along the entry.
# UniProt P08047, 2-785: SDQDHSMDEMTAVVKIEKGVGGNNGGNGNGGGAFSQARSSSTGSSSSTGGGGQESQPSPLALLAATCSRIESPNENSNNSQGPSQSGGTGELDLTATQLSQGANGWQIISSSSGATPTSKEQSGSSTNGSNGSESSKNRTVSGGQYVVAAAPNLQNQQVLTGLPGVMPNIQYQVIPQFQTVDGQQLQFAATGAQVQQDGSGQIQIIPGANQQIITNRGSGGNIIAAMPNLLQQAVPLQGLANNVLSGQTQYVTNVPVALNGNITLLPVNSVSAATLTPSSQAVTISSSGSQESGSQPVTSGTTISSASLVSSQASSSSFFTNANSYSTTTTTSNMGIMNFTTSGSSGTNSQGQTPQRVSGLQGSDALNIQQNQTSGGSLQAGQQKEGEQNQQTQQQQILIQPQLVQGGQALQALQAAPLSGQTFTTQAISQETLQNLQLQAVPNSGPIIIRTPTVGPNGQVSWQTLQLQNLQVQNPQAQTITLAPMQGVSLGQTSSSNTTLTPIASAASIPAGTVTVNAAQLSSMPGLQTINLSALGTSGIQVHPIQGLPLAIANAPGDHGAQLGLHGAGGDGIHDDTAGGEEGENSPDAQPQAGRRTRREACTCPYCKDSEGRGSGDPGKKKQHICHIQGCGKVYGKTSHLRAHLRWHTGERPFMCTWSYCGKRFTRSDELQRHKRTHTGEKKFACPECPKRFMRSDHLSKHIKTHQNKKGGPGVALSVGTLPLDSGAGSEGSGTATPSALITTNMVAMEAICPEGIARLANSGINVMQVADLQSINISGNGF
# The exact form of at least one protein or probe is not confirmed. No signal at the amounts used counts as a negative. At least one verdict was read from the data and is not stated in words by the source.
# Molecular target: Sp1 (UniProt P08047)
# Assay: EMSA
# Conditions: recombinant Sp1; LightShift Chemiluminescent EMSA kit (Pierce), 25 °C, 20 min, 6% PAGE; 100-fold unlabeled competitor; salt and pH not stated; commercial protein; label: 3' biotin
sequence,measurement,value
CCTTCAAGTGACTAGGAAGTGGAAACCT (double strand) [MMP13 rs2252070A probe],binding result,no binding
